Reference: PubChem BioAssay AID1159578 (Peter MacCallum Cancer Centre, 2015)
This is a random part of about 18,000 reagents. In the full data, about 1,030 (5.7%) were called active. 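Inactive calls also include pools with fewer than 3300 nuclei, whose migration was not assessed.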 Raw values vary from plate to plate and are shown uncorrected. A number with no mark means an inactive call. No sequences are given here.

Aim: 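siRNA pools altering how lymphatic endothelial cells close a scratch wound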 (primary screen)
System: human lymphatic endothelial cells
Knock-down reagent: siRNA pool against human genes, 40 nM
Time to read-out: 48 h after transfection
Detection: 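High-content imaging of dye-stained cells in a scratch assay measures filled wound area and nuclei per well; duplicate means given as ratio to mock and robust z-score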
Scale: migration robust z-score: higher = faster migration into the scratch; migration relative to mock: higher = more scratch area covered than mock; nuclei per well: higher = more cells in the well
Call rule: 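Pools averaging fewer than 3300 nuclei are never called; remaining pools count as changed when migration robust z lies outside -2 to 2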
Meaning of the calls: active = migration changed; inactive = no migration change, or too few cells

| gene symbol | migration robust z-score | migration class with cell-count check | migration relative to mock | nuclei per well, duplicate mean |
| --- | --- | --- | --- | --- |
| PTPRO (GeneID 5800) | -0.2 | migration z between -2 and 2; enough cells | 0.76 | 6638 |
| DNAJB7 (GeneID 150353) | 0.71 | migration z between -2 and 2; enough cells | 1.07 | 5718 |
| DERL2 (GeneID 51009) | -1.09 | migration z between -2 and 2; enough cells | 0.6 | 3842 |
| AKR1B1 (GeneID 231) | -1.25 | migration z between -2 and 2; enough cells | 0.56 | 5450 |
| YME1L1 (GeneID 10730) | 0.55 | migration z between -2 and 2; enough cells | 0.91 | 5879 |
| PLA2G4F (GeneID 255189) | 0.13 | migration z between -2 and 2; enough cells | 0.83 | 5510 |
| SLC24A1 (GeneID 9187) | 0.76 | migration z between -2 and 2; enough cells | 0.95 | 5918 |
| DHX34 (GeneID 9704) | 1.56 | migration z between -2 and 2; enough cells | 1.1 | 5794 |
| ILDR1 (GeneID 286676) | 2.4 (active) | migration z above 2; enough cells | 1.51 | 7710 |
| ITSN2 (GeneID 50618) | -0.97 | migration z between -2 and 2; enough cells | 0.64 | 4950 |
| RAB29 (GeneID 8934) | -0.75 | migration z between -2 and 2; enough cells | 0.69 | 5794 |
| MRI1 (GeneID 84245) | -1.19 | migration z between -2 and 2; enough cells | 0.57 | 3404 |
| KIF21B (GeneID 23046) | -0.36 | migration z between -2 and 2; enough cells | 0.74 | 6536 |
| IZUMO1 (GeneID 284359) | -0.2 | migration z between -2 and 2; enough cells | 0.84 | 6028 |
| GRIN3B (GeneID 116444) | -0.68 | migration z between -2 and 2; enough cells | 0.68 | 5394 |
| LCTL (GeneID 197021) | -0.44 | migration z between -2 and 2; enough cells | 0.72 | 6331 |
| PARP1 (GeneID 142) | 0.73 | migration z between -2 and 2; enough cells | 0.94 | 5239 |
| GOLGA7 (GeneID 51125) | 0.54 | migration z between -2 and 2; enough cells | 1.03 | 6079 |
| MTFR2 (GeneID 113115) | -0.53 | under 3300 nuclei; migration not judged | 0.74 | 3299 |
| MSH3 (GeneID 4437) | -0.78 | migration z between -2 and 2; enough cells | 0.66 | 4959 |
| B3GAT2 (GeneID 135152) | 0.16 | migration z between -2 and 2; enough cells | 0.84 | 7021 |
| HMGN1 (GeneID 3150) | -3.55 | under 3300 nuclei; migration not judged | 0.12 | 2422 |
| SGSM1 (GeneID 129049) | -0.06 | migration z between -2 and 2; enough cells | 0.86 | 6840 |
| GUCA1C (GeneID 9626) | 1.12 | migration z between -2 and 2; enough cells | 1.02 | 5912 |
| FBXO8 (GeneID 26269) | -1.87 | migration z between -2 and 2; enough cells | 0.45 | 5724 |
| STRN4 (GeneID 29888) | 0.16 | migration z between -2 and 2; enough cells | 0.92 | 6382 |
| CFAP299 (GeneID 255119) | -0.6 | migration z between -2 and 2; enough cells | 0.74 | 5557 |
| RESF1 (GeneID 55196) | 0.5 | migration z between -2 and 2; enough cells | 1.02 | 6521 |
| ELOVL3 (GeneID 83401) | 0.92 | migration z between -2 and 2; enough cells | 1.12 | 6322 |
| HLA-A (GeneID 3105) | -1.79 | migration z between -2 and 2; enough cells | 0.46 | 5078 |
| C1orf21 (GeneID 81563) | -0.52 | migration z between -2 and 2; enough cells | 0.76 | 4822 |
| OR5C1 (GeneID 392391) | -0.32 | migration z between -2 and 2; enough cells | 0.8 | 5175 |
| PLPPR3 (GeneID 79948) | 0.88 | migration z between -2 and 2; enough cells | 1.12 | 5628 |
| SLC6A2 (GeneID 6530) | -1.32 | under 3300 nuclei; migration not judged | 0.55 | 3098 |
| A4GNT (GeneID 51146) | -0.54 | migration z between -2 and 2; enough cells | 0.74 | 6007 |
| ETV7 (GeneID 51513) | 1.29 | migration z between -2 and 2; enough cells | 1.06 | 7765 |
| LZIC (GeneID 84328) | 0.16 | migration z between -2 and 2; enough cells | 0.92 | 6244 |
| EPN2 (GeneID 22905) | 1.36 | migration z between -2 and 2; enough cells | 1.24 | 6743 |
| ELL2 (GeneID 22936) | -0.54 | migration z between -2 and 2; enough cells | 0.74 | 6647 |

No new results follow: 2 of the entries above.
| gene symbol | migration robust z-score | migration class with cell-count check | migration relative to mock | nuclei per well, duplicate mean |
| --- | --- | --- | --- | --- |
| HLA-A (GeneID 3105) | -1.79 | migration z between -2 and 2; enough cells | 0.46 | 5078 |
| C1orf21 (GeneID 81563) | -0.52 | migration z between -2 and 2; enough cells | 0.76 | 4822 |
